PubChem BioAssay AID445 (National Center for Advancing Translational Sciences (NCATS), 2006)
This is one part of the list. Shown are side measurements of this screen, not its main read-out; they come without a call. Compounds called inactive in the main read-out are mostly missing here. Words in brackets tell the shape of the fitted curve; partial curves, single points and poor fits give uncertain potencies.

experiment: IkB Signaling; settings: ABC-DLBCL IkBa-CBG/CBR dual luciferase ratio (green luciferase fused to IkBa over red control in OCI-Ly3 lymphoma cells), 4 h; measured here: control luc red channel unless noted
Method in brief: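 Curves were fitted separately to fusion (green), unfused (red) and ratio luminescence, then classed by r2, magnitude and activity. Cells: OCI-Ly3, 4 h compound plus doxycycline at 37C; 10 uM MG-132 defined full response.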

Row | SMILES | AC50
1 | O=C(CN1CCN(CC(=O)Nc2ccccc2F)CC1)Nc1ccc(Cl)c(C(F)(F)F)c1 | 31.6 µM [falling, single point]
2 | CCOC(=O)C1=C(C(F)(F)F)Nc2ncnn2C1c1cccc(OC)c1OC (centres undefined) | 1.26 µM [rising, full curve]
3 | Cn1c2ccccc2c2nnc(SCN3C(=O)c4ccccc4C3=O)nc21 | 31.6 nM [rising, partial curve, poor fit] [measured here: IkB-luc green channel]
4 | Cc1c(CNCCCc2ccccc2)c(C(=O)O)c(C)n1Cc1cccc(Cl)c1 | 15.8 µM [falling, single point]
5 | OC[C@@H]1O[C@@H](n2cnc3c(NC4CCCC4)ncnc32)[C@@H](O)[C@H]1O | 3.16 µM [rising, full curve] [measured here: IkB-luc green channel]
6 | CCC1=C(c2ccc(C)cc2)S(=O)(=O)N=C1N1CCC(C(=O)N2CCCCC2)CC1 | 20 µM [falling, single point]
7 | CCN(CC)S(=O)(=O)c1ccc2oc(SCC3CN=C(c4ccc(OC)cc4)S3)nc2c1 (centres undefined) | 2 µM [falling, full curve, poor fit]
8 | CCn1c(=O)n(CC(=O)NCc2ccccc2OC)c(=O)c2ccccc21 | 0.631 µM [falling, full curve]
9 | CN(Cc1ccccc1)c1ccc(-c2nc(-c3cccnc3)no2)cc1[N+](=O)[O-] | 2.51 µM [falling, partial curve]
10 | CCN(Cc1ccccc1)S(=O)(=O)c1ccc2[nH]c3c(c2c1)CCCCC3 | 7.94 µM [falling, partial curve]
11 | CCC(C(=O)NCCc1cc(OC)ccc1OC)n1nc(C)c2sc3ccccc3c2c1=O (centres undefined) | 10 µM [falling, partial curve]
12 | Cc1ccc(C)c(N2CCN(C(=O)C3CCN(S(=O)(=O)c4cccc5nsnc45)CC3)CC2)c1 | 10 µM [falling, partial curve]
13 | CCCCOc1ccc(C(=O)NCCc2csc(-c3ccc(OC)cc3)n2)cc1 | 20 µM [falling, partial curve]
14 | Cc1ccc(C(=O)CSc2nnc(CNc3nc(-c4ccccc4)cs3)n2C)cc1 | 15.8 µM [falling, partial curve]
15 | COc1ccccc1NC(=O)Nc1ccc(Br)cn1 | 1.26 µM [falling, full curve]
16 | c1cnc2c(OCc3nc4ccccc4[nH]3)cccc2c1 | 3.98 µM [falling, full curve]
17 | Cc1ccc(NS(=O)(=O)c2ccc3[nH]c4c(c3c2)CCCCC4)cc1 | 15.8 µM [falling, partial curve]
18 | CC(=O)N1CCc2cc(S(=O)(=O)N3CCN(c4ccc(C)cc4)C(C)C3)ccc21 (centres undefined) | 39.8 µM [falling, partial curve, poor fit]
19 | CCc1ccc(OCC(=O)Nc2ccc(Cl)c(-c3nc4ncccc4o3)c2)cc1 | 12.6 µM [falling, partial curve]
20 | CCOc1ccc(S(=O)(=O)NCC(c2cccs2)S(=O)(=O)c2ccc(C)cc2)cc1 (centres undefined) | 20 µM [falling, partial curve, poor fit]

Ordered by molar mass (smallest number first): part of the list above.
Row | SMILES | AC50
5 | OC[C@@H]1O[C@@H](n2cnc3c(NC4CCCC4)ncnc32)[C@@H](O)[C@H]1O | 3.16 µM [rising, full curve] [measured here: IkB-luc green channel]
2 | CCOC(=O)C1=C(C(F)(F)F)Nc2ncnn2C1c1cccc(OC)c1OC (centres undefined) | 1.26 µM [rising, full curve]
1 | O=C(CN1CCN(CC(=O)Nc2ccccc2F)CC1)Nc1ccc(Cl)c(C(F)(F)F)c1 | 31.6 µM [falling, single point]

Going on with the list:

Row | SMILES | AC50
21 | Cc1ccc(C)c(N(C)S(=O)(=O)c2ccc3[nH]cc(C(=O)NC4CCCC4)c(=O)c3c2)c1 | 25.1 µM [falling, partial curve]
22 | CC(C)(C)NC(=O)CCSc1nc(-c2ccc3c(c2)OCO3)cc(C(F)(F)F)n1 | 31.6 µM [falling, single point]
23 | COc1cccc2sc(N(Cc3cccnc3)C(=O)c3ccc(S(=O)(=O)N(C)C)cc3)nc12 | 39.8 µM [falling, single point]
24 | COc1ccccc1CNC(=O)c1cc2cc(S(=O)(=O)N3CCCCC3)ccc2n1C | 3.16 µM [falling, partial curve]
25 | COc1cc2c(cc1OC)C(c1cc(OC)c(O)c(OC)c1)CC(=O)N2 (centres undefined) | 31.6 µM [rising, single point]
26 | Cc1ccc(-c2c(C)n3c4c(=O)n(C)c(=O)n(C)c4nc3n2CCCO)cc1 | 20 µM [falling, partial curve]
27 | O=C(CCn1cnnn1)Nc1ccccc1 | 0.631 µM [falling, full curve, poor fit]
28 | COc1cc(-c2csc(C)n2)ccc1O | 2 µM [rising, partial curve] [measured here: IkB-luc green channel]
29 | CCOc1ccc(NC(=O)C2CCCN(S(=O)(=O)c3ccc(Br)s3)C2)cc1 (centres undefined) | 0.1 µM [falling, full curve]
30 | CC(=O)N1c2c(cc(Br)cc2S(=O)(=O)Nc2ccccc2C)CC1C (centres undefined) | 15.8 µM [falling, partial curve]
31 | COc1ccc(C2SCCN2S(=O)(=O)c2ccccc2)cc1OC (centres undefined) | 39.8 µM [falling, single point]
32 | CCOc1cc(Br)c(C2C(C(=O)OC)=C(C)NC3=C2C(=O)c2ccccc23)cc1OCC (centres undefined) | 15.8 µM [falling, partial curve]
33 | O=C(Nc1cccc(C(F)(F)F)c1)c1ccc(F)c(S(=O)(=O)N2CCc3ccccc3C2)c1 | 0.794 µM [falling, full curve]
34 | Cc1nn(Cc2ccccc2)c(Cl)c1C(=O)OCc1nnc(-c2ccccc2)o1 | 25.1 µM [falling, partial curve]
35 | CC(=O)N1CCCc2cc(S(=O)(=O)N3CCC(N(C)C(C)C)CC3)ccc21 | 1.26 µM [rising, full curve, poor fit]
36 | Cc1cc(Nc2cccc(O)c2)c2cccc(Br)c2n1 | 39.8 µM [falling, single point]
37 | CCOc1ccc(OCC(=O)c2c(O)c3ccccc3oc2=O)cc1 | 1 µM [falling, full curve]
38 | CCc1ccc(S(=O)(=O)c2cn(CC(=O)Nc3cccc(C)c3)c3ccc(Cl)cc3c2=O)cc1 | 1.58 µM [rising, partial curve]
39 | COc1nnc(-c2ccc(N3CCCCC3)c(NC(=O)c3ccc(Cl)cc3)c2)c2ccccc12 | 10 µM [falling, partial curve]
